± gives the standard deviation of the averaged measurements. The entries are a selection whose mix differs from that of the whole data set. Most entries show no effect beyond the scatter of the controls.

Amino acid sequences for entries named in this document (tags omitted). A change or cut given only in a name is not applied to a line headed by its entry.
UniProt Q15631: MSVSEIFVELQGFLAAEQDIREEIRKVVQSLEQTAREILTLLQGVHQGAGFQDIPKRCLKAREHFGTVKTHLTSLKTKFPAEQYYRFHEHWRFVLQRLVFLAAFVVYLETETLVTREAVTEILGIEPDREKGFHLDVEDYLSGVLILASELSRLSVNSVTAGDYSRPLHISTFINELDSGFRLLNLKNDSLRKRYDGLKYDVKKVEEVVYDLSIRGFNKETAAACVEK
UniProt O00746: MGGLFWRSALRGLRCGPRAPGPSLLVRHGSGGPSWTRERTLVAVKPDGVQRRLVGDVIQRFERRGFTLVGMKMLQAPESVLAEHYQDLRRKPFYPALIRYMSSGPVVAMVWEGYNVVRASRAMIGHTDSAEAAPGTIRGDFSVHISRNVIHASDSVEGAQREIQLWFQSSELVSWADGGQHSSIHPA
UniProt Q9H4P4: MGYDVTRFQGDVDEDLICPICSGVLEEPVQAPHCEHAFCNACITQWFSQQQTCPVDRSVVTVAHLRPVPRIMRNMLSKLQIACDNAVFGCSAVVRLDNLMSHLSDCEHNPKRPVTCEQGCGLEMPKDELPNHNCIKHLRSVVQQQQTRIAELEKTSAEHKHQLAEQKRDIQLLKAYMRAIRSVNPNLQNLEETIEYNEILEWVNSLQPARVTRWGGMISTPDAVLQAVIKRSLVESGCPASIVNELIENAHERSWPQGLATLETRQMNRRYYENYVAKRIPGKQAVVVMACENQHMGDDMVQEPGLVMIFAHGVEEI
UniProt Q8NFZ0: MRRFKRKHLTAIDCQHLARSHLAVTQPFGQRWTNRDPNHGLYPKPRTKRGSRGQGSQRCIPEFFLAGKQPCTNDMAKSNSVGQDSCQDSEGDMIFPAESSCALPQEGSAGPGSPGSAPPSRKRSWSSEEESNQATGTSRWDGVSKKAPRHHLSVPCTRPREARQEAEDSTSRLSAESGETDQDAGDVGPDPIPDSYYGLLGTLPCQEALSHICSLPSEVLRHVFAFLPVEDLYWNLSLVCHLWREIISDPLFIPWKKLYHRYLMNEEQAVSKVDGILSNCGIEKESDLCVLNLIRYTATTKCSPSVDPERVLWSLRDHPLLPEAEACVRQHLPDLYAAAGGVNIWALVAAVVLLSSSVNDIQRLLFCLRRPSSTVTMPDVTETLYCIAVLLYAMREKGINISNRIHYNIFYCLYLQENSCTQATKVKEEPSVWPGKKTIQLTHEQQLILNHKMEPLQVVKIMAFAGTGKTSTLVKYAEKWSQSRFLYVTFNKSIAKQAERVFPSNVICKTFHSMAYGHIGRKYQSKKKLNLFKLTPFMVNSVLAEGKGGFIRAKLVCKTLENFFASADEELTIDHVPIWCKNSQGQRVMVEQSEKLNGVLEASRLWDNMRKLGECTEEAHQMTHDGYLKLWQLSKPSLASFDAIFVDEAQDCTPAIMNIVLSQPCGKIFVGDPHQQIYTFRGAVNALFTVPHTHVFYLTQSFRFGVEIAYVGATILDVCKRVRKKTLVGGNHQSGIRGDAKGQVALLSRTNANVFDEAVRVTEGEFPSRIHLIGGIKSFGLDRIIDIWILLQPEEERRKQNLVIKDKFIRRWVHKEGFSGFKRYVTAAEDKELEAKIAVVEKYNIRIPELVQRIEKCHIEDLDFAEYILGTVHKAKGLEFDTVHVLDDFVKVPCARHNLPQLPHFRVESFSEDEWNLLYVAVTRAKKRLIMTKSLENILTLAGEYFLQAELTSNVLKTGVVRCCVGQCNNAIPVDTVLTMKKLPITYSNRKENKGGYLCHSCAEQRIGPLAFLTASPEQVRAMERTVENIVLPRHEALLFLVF
UniProt P98171: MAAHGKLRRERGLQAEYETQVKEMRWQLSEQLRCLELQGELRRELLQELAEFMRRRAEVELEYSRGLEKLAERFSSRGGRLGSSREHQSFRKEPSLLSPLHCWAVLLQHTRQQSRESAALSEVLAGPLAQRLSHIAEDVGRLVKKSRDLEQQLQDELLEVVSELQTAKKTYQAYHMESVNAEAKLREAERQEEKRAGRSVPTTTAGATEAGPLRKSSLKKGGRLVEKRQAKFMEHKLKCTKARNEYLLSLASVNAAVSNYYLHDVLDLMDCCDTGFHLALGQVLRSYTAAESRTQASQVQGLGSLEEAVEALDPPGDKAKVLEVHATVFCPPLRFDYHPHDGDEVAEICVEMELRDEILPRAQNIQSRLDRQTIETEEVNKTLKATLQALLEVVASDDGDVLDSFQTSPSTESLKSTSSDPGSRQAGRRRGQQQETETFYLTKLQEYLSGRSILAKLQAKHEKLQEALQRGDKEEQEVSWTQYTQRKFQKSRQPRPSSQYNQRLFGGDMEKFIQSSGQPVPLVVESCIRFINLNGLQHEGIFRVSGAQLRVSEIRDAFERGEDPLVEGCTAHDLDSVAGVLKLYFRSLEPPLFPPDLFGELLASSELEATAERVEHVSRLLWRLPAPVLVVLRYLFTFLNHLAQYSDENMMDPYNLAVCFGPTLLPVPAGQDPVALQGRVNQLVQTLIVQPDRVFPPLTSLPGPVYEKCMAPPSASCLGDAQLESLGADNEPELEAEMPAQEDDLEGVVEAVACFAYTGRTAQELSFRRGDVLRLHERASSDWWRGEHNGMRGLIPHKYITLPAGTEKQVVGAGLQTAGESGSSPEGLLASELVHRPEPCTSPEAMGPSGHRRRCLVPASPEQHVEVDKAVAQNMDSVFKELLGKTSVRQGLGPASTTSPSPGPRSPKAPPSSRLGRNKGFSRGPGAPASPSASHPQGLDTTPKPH
UniProt P19404, whole entry: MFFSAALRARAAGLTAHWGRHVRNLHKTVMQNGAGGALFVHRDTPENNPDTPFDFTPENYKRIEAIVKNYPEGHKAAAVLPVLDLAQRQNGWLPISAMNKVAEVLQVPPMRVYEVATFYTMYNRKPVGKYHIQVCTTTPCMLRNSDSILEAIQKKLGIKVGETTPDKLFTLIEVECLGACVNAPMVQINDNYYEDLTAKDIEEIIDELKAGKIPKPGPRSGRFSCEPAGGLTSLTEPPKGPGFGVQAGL
UniProt Q9Y4P3: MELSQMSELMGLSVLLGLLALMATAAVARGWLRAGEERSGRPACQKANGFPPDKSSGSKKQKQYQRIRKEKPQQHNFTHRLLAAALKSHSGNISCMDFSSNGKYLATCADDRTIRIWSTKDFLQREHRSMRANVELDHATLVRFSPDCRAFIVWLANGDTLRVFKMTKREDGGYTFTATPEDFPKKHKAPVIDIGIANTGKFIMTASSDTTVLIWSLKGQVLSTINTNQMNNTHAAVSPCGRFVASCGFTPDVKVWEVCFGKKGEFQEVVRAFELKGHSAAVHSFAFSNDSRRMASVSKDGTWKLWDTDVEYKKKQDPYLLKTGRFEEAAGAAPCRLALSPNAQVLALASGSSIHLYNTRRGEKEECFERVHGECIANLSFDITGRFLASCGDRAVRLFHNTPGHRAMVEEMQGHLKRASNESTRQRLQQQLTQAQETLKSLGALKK
UniProt Q15434: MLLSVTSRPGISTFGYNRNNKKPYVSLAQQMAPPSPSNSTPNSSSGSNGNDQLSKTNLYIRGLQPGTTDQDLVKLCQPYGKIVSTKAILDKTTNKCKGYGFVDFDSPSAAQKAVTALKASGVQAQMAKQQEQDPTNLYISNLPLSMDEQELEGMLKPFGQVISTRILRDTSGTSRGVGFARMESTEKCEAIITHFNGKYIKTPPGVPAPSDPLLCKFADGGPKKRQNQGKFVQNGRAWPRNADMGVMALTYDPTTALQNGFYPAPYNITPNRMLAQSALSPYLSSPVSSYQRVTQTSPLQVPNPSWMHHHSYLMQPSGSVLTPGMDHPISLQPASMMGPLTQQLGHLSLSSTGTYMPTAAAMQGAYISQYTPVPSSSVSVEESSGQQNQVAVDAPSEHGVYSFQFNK
UniProt Q05397, whole entry, looked up: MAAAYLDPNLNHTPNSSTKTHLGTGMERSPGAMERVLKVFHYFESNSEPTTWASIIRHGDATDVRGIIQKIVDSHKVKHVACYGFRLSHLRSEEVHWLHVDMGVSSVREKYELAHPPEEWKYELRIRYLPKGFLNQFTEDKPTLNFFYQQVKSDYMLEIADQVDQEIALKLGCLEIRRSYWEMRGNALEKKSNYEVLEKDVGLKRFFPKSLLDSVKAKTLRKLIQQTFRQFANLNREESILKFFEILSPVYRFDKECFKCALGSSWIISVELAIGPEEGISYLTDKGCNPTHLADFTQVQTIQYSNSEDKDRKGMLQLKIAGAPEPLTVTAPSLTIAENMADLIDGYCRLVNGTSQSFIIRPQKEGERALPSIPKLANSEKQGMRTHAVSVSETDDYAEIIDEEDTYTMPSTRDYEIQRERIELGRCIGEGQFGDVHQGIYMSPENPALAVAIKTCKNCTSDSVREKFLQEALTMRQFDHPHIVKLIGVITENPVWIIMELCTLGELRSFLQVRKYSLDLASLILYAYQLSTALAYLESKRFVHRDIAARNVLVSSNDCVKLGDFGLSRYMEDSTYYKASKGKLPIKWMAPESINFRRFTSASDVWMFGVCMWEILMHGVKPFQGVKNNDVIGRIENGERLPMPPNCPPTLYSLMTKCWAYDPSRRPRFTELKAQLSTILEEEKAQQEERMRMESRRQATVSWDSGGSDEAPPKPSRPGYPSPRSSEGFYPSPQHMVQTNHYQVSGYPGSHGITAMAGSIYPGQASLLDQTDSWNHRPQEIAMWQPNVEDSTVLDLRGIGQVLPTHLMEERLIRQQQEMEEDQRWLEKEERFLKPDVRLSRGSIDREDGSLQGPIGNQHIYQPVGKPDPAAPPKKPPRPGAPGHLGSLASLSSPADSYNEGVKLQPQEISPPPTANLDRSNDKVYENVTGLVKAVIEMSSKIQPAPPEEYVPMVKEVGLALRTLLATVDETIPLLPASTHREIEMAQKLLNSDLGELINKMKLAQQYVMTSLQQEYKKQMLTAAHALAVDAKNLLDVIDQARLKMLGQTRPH
UniProt Q9H2H9: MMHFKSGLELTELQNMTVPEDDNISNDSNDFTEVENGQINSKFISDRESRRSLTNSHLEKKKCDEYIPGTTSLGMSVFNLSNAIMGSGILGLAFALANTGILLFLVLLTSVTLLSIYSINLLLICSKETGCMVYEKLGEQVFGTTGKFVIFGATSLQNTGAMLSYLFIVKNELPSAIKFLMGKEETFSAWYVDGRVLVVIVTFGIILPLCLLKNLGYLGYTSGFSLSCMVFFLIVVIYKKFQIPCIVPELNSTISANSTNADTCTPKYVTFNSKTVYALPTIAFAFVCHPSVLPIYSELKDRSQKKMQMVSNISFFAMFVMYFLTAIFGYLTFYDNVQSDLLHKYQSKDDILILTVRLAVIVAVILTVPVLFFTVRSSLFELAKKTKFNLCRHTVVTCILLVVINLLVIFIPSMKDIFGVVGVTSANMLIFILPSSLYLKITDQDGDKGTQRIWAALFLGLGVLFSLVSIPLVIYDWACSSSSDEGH
UniProt O75496: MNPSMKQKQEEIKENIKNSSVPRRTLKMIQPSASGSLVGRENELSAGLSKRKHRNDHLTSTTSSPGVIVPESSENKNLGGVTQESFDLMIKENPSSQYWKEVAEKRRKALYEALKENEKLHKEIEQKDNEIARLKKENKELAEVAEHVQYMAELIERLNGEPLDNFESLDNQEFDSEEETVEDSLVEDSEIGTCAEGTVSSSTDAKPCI
UniProt Q53GL7: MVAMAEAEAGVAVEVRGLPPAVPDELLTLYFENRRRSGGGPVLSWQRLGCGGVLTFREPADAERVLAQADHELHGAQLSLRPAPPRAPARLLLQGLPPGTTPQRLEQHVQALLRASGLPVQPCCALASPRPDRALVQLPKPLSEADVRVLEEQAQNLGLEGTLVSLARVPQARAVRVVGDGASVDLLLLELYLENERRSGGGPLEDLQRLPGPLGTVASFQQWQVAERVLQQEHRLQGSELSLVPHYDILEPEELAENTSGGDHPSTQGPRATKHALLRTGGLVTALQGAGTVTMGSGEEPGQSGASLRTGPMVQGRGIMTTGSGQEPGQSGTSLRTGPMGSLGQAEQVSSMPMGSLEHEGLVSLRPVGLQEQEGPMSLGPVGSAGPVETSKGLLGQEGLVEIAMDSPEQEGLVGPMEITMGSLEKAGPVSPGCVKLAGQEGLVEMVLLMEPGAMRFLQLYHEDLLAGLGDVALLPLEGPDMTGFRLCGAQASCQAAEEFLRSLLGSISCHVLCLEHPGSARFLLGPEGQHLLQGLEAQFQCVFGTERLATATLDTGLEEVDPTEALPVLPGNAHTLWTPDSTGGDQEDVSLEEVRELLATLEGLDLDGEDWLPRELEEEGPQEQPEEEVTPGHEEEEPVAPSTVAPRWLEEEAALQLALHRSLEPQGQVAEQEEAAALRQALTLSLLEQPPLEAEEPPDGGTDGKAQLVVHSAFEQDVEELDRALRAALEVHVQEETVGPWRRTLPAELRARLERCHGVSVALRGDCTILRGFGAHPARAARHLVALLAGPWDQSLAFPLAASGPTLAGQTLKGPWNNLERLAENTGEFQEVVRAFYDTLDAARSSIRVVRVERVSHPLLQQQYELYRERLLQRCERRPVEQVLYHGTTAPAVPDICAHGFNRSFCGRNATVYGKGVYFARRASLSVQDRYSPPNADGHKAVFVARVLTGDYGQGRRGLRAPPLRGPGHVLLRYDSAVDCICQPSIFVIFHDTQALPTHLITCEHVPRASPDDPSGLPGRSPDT

The text below walks through data of the supplement of paper PMC6411743.

Compound in this assay: Nc1ncnc2c1ncn2[C@@H]1O[C@H](COP(=O)(O)OP(=O)(O)OP(=O)(O)O)[C@@H](O)[C@H]1O [adenosine triphosphate]
Nature of the assay: NP40-soluble protein abundance relative to vehicle (solubility fold change) (ratio); higher = more soluble protein in presence of ATP. A digest of the protocol:
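Jurkat crude lysate (Dounce-homogenised) was treated with eight concentrations from 0.1 to 10 mM for 10 min at room temperature, then 3 min at 37 °C. It was solubilised with 0.8% NP40 and benzonase (60 min, 4 °C) and ultracentrifuged, and the supernatant was TMT-labelled for LC-MS/MS. Intensities were vsn-normalised, and the value is the fold change against the NP40-processed vehicle per replicate, from three independent experiments.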

Consider “G5E994 and related entries (UniProt Q5VW38)”, for which the NP40-soluble protein abundance stood at 1.07 ± 0.081 (concentration: 0.1mM) and 0.975 ± 0.015 (concentration: 0.5mM).
On to “F8VNV8 and related entries (UniProt P54284)”, for which the NP40-soluble protein abundance runs as follows: (concentration: 0.1mM) 0.987 ± 0.18; (concentration: 0.5mM) 1.1 ± 0.024.
As for “E7EN86 and related entries (UniProt P52747)”, the NP40-soluble protein abundance reads like this: (concentration: 0.1mM) 1 ± 0.091; (concentration: 0.5mM) 1.01 ± 0.045.
Taken in the same sequence, the figures for “E9PJK5 and related entries (UniProt Q8N612)” were 1.21 ± 0.23 and 0.958 ± 0.055.
Turning to E9PGT1 (UniProt Q15631), the NP40-soluble protein abundance by setting is: (concentration: 0.1mM) 0.993 ± 0.033; (concentration: 0.5mM) 0.961 ± 0.03.
In the case of “F2Z2X0 and related entries (UniProt O00746)”, the NP40-soluble protein abundance was 1.09 ± 0.04 (concentration: 0.1mM) and 1.04 ± 0.024 (concentration: 0.5mM).
Turning to “E9PFI7 and related entries (UniProt Q8N3A8)”, the NP40-soluble protein abundance runs as follows: (concentration: 0.1mM) 1.03 ± 0.11; (concentration: 0.5mM) 1.1 ± 0.18.
The matching figures for “F8VSB6 and related entries (UniProt Q9H4P4)”: 0.96 ± 0.079 and 0.914 ± 0.039.
For “G3V1M0 and related entries (UniProt Q9Y5A6)”, the NP40-soluble protein abundance (concentration: 0.1mM) was 1.01 ± 0.096 and the NP40-soluble protein abundance (concentration: 0.5mM) turned out to be 1.08 ± 0.085.
Consider “E9PNT2 and related entries (UniProt Q6ZUM4)”, for which the NP40-soluble protein abundance is 1.02 ± 0.022 (concentration: 0.1mM) and 1.02 ± 0.02 (concentration: 0.5mM).
The matching figures for UniProt F5H5P2: 0.99 ± 0.027 and 1 ± 0.016.
The matching figures for “E9PF16 and related entries (UniProt Q96CM8)”: 1.03 ± 0.033 and 1.03 ± 0.051.
In the case of “E7ET07 and related entries (UniProt Q9NXR8)”, the NP40-soluble protein abundance was 1.09 ± 0.15 (concentration: 0.1mM) and 1.18 ± 0.12 (concentration: 0.5mM).
Taken in the same sequence, the figures for “E9PC90 and related entries (UniProt P14635)” were 0.981 ± 0.14 and 0.957 ± 0.04.
Taken in the same sequence, the figures for “F8VX10 and related entries (UniProt Q9H9L4)” were 0.965 ± 0.069 and 1 ± 0.057.
“F6UZG9 and related entries (UniProt Q8NFZ0)”: the NP40-soluble protein abundance is, setting by setting: (concentration: 0.1mM) 1.06 ± 0.21; (concentration: 0.5mM) 0.961 ± 0.05.
The matching figures for “F8VXC8 and related entries (UniProt Q8TAQ2)”: 1.01 ± 0.052 and 1.08 ± 0.092.
As to “E3W994 and related entries (UniProt O75122)”, the NP40-soluble protein abundance turned out to be 0.997 ± 0.045 (concentration: 0.1mM) and 1.13 ± 0.061 (concentration: 0.5mM).
The matching figures for “F2Z2I2 and related entries (UniProt Q16875)”: 1.03 ± 0.058 and 1.04 ± 0.057.
Regarding “E7EMW7 and related entries (UniProt O95071)”, the NP40-soluble protein abundance by setting is: (concentration: 0.1mM) 1.02 ± 0.068; (concentration: 0.5mM) 1.09 ± 0.088.
Taken in the same sequence, the figures for “E9PNW4 and related entries (UniProt P13987)” were 0.904 ± 0.097 and 0.88 ± 0.14.
The matching figures for “E7EQN5 and related entries (UniProt P98171)”: 1.02 ± 0.012 and 1.02 ± 0.033.
Consider “F5H5I6 and related entries (UniProt Q12849)”, for which the NP40-soluble protein abundance was 1.01 ± 0.04 (concentration: 0.1mM) and 1.03 ± 0.042 (concentration: 0.5mM).
Regarding “E7ETZ4 and related entries (UniProt Q9Y6E2)”, the NP40-soluble protein abundance (concentration: 0.1mM) amounted to 0.98 ± 0.018 and the NP40-soluble protein abundance (concentration: 0.5mM) is 1.003 ± 0.0092.
“E7EPT4 and related entries (UniProt P19404)”: the NP40-soluble protein abundance turned out to be 0.897 ± 0.14 (concentration: 0.1mM) and 0.869 ± 0.13 (concentration: 0.5mM).
The matching figures for “E9PKF6 and related entries (UniProt Q5H9R7)”: 1.01 ± 0.06 and 1.01 ± 0.054.
Turning to “E9PF19 and related entries (UniProt Q9Y4P3)”, the NP40-soluble protein abundance was found to be 1.05 ± 0.053 (concentration: 0.1mM) and 1.1 ± 0.024 (concentration: 0.5mM).
Consider “F8W950 and related entries (UniProt Q13155)”, for which the NP40-soluble protein abundance is, setting by setting: (concentration: 0.1mM) 0.968 ± 0.054; (concentration: 0.5mM) 0.983 ± 0.052.
As for “E9PMR6 and related entries (UniProt Q9NZN5)”, the NP40-soluble protein abundance is, setting by setting: (concentration: 0.1mM) 1.04 ± 0.014; (concentration: 0.5mM) 1.01 ± 0.081.
As to “F8W1T6 and related entries (UniProt Q15434)”, the NP40-soluble protein abundance was found to be 0.893 ± 0.14 (concentration: 0.1mM) and 0.896 ± 0.022 (concentration: 0.5mM).
For the target “E7ESA6 and related entries (UniProt Q05397)”, the NP40-soluble protein abundance reads like this: (concentration: 0.1mM) 1.34 ± 0.28; (concentration: 0.5mM) 1.09 ± 0.18.
In the case of “G3V3H3 and related entries (UniProt Q07866)”, the NP40-soluble protein abundance is 0.962 ± 0.051 (concentration: 0.1mM) and 1 ± 0.071 (concentration: 0.5mM).
Take E9PJ55 (UniProt Q9NUJ3): the NP40-soluble protein abundance (concentration: 0.1mM) was found to be 1.05 ± 0.083 and the NP40-soluble protein abundance (concentration: 0.5mM) turned out to be 1.02 ± 0.068.
For the target “F5H5G1 and related entries (UniProt Q13449)”, the NP40-soluble protein abundance was 0.991 ± 0.069 (concentration: 0.1mM) and 0.914 ± 0.022 (concentration: 0.5mM).
Taken in the same sequence, the figures for “F8VX04 and related entries (UniProt Q9H2H9)” were 0.912 ± 0.054 and 0.979 ± 0.045.
As to “F5H0U5 and related entries (UniProt Q9NZD2)”, the NP40-soluble protein abundance is, setting by setting: (concentration: 0.1mM) 0.879 ± 0.12; (concentration: 0.5mM) 0.829 ± 0.17.
The matching figures for “E9PN10 and related entries (UniProt O00559)”: 0.98 ± 0.07 and 0.933 ± 0.07.
The matching figures for “F8W8C2 and related entries (UniProt Q9HBM0)”: 0.988 ± 0.033 and 0.997 ± 0.041.
Take “E9PKC0 and related entries (UniProt Q6IQ23)”: the NP40-soluble protein abundance (concentration: 0.1mM) is 1.05 ± 0.059 and the NP40-soluble protein abundance (concentration: 0.5mM) was 1.19 ± 0.083.
Taken in the same sequence, the figures for “F5H1N7 and related entries (UniProt Q6ZU35)” were 0.886 ± 0.046 and 0.931 ± 0.056.
As for “E2QRF9 and related entries (UniProt O75496)”, the NP40-soluble protein abundance by setting is: (concentration: 0.1mM) 0.923 ± 0.052; (concentration: 0.5mM) 0.94 ± 0.057.
On to “F5GYX3 and related entries (UniProt O75326)”, for which the NP40-soluble protein abundance was determined as 0.913 ± 0.089 (concentration: 0.1mM) and 0.965 ± 0.031 (concentration: 0.5mM).
The matching figures for “E9PK67 and related entries (UniProt Q53GL7)”: 1.03 ± 0.016 and 1 ± 0.038.
The matching figures for “F8VU39 and related entries (UniProt Q9UIF9)”: 1.03 ± 0.095 and 1.1 ± 0.16.
